These are yes or no findings as the source states them, for the method shown. Some results given as binding are weak or reduced against the parent protein; the word gives no strength. Where a sequence is shown, tags or fusion partners need not be part of it.
Biological target: DsRed K83R, polyhistidine-tagged
Test: SDS-PAGE without heating, self-association

B1: DsRed K83R, polyhistidine-tagged (protein)
chain: MRGSHHHHHHGMASMTGGQQMGRDLYDDDDKDPMRSSKNVIKEFMRFKVRMEGTVNGHEFEIEGEGEGRPYEGHNTVKLKVTKGGPLPFAWDILSPQFQYGSKVYVKHPADIPDYRKLSFPEGFKWERVMNFEDGGVVTVTQDSSLQDGCFIYKVKFIGVNFPSDGPVMQKKTMGWEASTERLYPRDGVLKGEIHKALKLKDGGHYLVEFKSIYMAKKPVQLPGYYYVDSKLDITSHNEDYTIVEQYERTEGRHHLFL
binding: binds

From patent publication US20100227400A1 (published 2010)
